Source: the supplement of paper PMC10849652
Some of the results follow.

Sequences of proteins named here, by UniProt entry; tags and fusion partners are left off. A change or cut given only in a name is not applied to a line headed by its entry.
UniProt O43427: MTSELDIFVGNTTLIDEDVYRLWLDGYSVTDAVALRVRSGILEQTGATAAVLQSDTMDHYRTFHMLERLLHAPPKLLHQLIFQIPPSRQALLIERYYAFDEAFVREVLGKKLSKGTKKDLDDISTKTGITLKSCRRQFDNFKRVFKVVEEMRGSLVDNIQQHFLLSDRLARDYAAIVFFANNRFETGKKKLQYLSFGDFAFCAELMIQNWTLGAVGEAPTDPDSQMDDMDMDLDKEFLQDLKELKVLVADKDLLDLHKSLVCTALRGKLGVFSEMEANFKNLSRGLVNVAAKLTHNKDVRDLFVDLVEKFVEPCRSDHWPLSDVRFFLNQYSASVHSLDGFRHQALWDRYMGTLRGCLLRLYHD
UniProt P22087: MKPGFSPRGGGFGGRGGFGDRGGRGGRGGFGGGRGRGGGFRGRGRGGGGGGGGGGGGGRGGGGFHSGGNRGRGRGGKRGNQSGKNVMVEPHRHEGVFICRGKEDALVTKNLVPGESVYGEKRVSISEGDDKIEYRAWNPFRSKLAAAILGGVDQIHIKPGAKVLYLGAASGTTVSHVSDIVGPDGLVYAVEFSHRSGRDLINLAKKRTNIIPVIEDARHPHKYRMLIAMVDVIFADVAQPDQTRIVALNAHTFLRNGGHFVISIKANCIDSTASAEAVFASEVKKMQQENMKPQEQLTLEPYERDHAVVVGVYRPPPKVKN
UniProt Q8TB52: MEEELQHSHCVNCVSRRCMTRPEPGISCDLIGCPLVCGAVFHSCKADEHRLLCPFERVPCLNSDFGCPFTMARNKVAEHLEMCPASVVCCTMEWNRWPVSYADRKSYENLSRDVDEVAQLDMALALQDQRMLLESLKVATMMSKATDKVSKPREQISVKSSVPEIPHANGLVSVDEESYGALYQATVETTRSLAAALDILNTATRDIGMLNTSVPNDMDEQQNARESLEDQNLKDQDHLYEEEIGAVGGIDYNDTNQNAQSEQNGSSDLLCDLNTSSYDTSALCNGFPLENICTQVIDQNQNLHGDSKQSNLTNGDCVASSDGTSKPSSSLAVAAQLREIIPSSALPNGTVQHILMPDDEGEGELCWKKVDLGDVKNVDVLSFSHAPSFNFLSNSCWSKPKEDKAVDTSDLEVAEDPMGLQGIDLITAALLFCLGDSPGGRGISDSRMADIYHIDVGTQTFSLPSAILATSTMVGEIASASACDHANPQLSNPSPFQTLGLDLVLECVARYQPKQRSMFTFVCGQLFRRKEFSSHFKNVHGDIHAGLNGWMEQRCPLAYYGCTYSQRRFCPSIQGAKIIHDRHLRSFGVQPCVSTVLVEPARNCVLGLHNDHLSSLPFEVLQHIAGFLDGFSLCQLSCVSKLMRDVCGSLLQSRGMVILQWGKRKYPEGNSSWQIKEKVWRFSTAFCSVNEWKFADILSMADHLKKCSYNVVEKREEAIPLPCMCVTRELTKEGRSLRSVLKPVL
UniProt Q5T0N5: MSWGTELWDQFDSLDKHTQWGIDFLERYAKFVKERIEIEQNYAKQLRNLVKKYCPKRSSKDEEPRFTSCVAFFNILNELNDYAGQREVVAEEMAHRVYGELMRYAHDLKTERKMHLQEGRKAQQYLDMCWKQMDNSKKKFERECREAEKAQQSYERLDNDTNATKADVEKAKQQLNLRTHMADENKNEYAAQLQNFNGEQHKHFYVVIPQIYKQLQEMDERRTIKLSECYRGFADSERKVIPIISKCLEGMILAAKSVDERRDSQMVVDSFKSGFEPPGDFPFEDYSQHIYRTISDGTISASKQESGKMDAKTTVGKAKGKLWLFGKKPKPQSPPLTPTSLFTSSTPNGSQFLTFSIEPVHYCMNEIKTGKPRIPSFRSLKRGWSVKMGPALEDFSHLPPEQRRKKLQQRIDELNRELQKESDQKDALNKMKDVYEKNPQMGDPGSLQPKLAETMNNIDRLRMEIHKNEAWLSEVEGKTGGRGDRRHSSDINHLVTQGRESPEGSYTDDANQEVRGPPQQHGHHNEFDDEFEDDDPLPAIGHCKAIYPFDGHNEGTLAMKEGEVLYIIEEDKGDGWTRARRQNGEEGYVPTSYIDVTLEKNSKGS
UniProt Q6PIW4: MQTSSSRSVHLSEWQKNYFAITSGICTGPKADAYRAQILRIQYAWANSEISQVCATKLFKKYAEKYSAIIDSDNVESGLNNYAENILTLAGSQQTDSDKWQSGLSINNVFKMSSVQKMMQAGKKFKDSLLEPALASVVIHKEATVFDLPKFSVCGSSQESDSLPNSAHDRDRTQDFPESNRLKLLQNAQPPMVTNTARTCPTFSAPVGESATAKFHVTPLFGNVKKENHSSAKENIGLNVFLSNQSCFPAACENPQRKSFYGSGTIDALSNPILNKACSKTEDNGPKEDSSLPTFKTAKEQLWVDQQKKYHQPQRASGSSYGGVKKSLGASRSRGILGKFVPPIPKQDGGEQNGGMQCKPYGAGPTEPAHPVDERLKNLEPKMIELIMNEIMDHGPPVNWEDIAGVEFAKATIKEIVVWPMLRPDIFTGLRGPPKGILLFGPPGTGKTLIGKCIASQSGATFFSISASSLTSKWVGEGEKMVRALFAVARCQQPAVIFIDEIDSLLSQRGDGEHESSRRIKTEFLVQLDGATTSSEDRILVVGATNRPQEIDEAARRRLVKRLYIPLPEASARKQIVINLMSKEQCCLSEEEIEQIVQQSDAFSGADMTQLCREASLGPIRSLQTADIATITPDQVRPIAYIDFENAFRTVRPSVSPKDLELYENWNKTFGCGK
UniProt Q6UN15: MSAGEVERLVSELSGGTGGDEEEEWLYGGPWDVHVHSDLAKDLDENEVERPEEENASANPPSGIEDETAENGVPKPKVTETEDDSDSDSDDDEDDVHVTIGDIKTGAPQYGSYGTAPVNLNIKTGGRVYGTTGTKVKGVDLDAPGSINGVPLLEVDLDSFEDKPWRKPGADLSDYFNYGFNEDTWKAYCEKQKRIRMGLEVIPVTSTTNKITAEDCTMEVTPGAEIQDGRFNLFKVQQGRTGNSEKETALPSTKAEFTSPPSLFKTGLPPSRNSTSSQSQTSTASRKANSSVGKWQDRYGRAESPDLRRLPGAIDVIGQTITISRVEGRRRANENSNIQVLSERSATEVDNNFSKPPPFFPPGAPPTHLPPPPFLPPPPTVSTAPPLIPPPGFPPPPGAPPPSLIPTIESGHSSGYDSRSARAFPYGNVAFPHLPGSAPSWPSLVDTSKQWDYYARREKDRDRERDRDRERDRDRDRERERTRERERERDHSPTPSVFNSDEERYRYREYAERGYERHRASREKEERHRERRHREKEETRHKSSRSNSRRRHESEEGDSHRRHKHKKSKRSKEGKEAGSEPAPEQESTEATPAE
UniProt Q14254: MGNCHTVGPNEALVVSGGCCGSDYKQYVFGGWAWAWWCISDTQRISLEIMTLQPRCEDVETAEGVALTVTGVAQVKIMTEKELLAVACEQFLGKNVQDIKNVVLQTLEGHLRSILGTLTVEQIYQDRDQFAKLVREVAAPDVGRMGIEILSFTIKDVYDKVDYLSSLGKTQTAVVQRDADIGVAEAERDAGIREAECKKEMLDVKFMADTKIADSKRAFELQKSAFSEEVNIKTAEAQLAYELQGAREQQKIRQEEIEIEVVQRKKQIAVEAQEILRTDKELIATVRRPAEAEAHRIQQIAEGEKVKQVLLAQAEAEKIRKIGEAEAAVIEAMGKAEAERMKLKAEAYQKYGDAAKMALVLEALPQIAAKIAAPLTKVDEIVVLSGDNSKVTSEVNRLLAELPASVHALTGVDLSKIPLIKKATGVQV
UniProt Q9Y3D6: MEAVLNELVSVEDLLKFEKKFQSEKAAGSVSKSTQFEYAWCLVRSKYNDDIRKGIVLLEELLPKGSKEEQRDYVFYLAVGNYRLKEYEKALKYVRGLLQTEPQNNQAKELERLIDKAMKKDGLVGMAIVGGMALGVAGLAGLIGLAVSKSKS
UniProt Q658Y4: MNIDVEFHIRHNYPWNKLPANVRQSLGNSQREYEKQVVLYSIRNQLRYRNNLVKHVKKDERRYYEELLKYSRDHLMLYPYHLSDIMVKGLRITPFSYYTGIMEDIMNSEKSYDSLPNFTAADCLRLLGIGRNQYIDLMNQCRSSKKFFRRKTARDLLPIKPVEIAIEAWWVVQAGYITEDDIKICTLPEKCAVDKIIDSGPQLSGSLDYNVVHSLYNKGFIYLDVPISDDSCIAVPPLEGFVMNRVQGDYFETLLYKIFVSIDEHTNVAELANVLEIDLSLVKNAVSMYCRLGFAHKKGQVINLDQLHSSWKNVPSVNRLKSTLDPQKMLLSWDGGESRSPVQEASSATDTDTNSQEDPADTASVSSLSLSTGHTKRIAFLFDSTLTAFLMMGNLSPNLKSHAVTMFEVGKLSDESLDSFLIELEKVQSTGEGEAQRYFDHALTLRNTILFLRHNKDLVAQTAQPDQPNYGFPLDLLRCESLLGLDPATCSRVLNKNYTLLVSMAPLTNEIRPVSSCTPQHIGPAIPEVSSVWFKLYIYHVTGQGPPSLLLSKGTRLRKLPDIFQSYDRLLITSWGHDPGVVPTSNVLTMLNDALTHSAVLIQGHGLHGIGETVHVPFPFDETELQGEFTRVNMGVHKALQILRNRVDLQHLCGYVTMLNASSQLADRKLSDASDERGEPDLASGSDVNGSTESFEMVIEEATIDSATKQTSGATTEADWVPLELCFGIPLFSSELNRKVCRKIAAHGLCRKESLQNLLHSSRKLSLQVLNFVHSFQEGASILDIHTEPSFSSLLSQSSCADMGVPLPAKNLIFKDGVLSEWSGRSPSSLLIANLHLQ
UniProt Q9NYY8: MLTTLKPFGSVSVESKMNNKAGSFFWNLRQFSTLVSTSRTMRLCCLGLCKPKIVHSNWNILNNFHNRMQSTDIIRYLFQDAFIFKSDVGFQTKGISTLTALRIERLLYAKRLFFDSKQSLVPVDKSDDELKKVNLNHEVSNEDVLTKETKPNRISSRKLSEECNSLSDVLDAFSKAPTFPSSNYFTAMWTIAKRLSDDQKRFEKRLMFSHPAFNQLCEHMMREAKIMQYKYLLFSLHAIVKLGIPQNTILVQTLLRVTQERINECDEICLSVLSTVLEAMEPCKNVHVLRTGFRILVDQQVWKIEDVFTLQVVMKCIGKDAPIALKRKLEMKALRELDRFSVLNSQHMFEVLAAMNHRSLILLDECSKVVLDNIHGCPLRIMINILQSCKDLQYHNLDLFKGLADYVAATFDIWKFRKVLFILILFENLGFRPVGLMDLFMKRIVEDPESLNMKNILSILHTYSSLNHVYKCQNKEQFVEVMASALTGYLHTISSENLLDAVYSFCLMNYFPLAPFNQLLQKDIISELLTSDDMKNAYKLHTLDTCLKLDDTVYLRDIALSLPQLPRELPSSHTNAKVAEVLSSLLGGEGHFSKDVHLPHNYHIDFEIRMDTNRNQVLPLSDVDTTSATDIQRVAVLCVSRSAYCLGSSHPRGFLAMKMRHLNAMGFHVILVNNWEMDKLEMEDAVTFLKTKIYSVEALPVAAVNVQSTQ
UniProt Q14192: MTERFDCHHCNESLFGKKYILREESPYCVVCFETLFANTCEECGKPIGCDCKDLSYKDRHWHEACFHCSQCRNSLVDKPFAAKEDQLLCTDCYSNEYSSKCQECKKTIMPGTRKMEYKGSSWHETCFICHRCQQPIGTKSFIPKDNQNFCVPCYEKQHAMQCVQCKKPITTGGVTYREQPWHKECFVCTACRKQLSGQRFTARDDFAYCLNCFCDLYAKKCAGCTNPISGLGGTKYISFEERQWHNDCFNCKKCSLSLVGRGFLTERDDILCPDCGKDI
UniProt Q8NB91: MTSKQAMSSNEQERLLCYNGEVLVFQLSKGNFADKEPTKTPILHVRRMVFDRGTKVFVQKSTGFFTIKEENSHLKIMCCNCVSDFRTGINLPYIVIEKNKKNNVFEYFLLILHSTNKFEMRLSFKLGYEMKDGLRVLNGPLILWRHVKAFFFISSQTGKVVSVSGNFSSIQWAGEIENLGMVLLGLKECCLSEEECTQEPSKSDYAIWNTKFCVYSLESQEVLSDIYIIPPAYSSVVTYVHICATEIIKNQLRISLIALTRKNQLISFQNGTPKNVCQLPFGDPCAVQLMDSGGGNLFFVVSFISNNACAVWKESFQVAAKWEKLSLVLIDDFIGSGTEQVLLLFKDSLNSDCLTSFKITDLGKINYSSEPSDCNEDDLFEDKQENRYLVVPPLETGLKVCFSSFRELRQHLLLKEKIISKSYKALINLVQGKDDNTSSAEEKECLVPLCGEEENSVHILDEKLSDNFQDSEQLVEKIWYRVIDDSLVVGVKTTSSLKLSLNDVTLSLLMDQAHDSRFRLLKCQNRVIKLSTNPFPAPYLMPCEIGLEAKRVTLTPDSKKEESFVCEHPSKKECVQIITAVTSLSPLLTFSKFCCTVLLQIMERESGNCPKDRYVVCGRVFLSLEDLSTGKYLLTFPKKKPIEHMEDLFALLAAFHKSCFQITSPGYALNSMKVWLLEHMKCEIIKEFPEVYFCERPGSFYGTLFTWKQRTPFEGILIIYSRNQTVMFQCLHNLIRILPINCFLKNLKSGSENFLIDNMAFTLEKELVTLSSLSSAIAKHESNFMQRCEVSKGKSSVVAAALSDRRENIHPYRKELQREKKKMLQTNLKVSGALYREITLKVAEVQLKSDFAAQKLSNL

How the values were obtained:
Experiment in all cases: log2 fold change, soluble protein after heating vs DMSO (PISA); higher = thermal stabilisation; K562 lysate, 10 uM; active = over 0.2 and 3.5 SD of the protein, either way, in both replicates (recomputed)
[1] = compound: CS(=O)(=O)CCNCc1ccc(-c2ccc3ncnc(Nc4ccc(OCc5cccc(F)c5)c(Cl)c4)c3c2)o1 [lapatinib]
How it was run: (§1)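 To prepare the extract, K562 pellets were dounce-homogenised in PBS pH 7.4 with 1 mM MgCl2, giving crude material at 1 mg/mL protein. This was treated with 10 μM compound for 30 min, then heated in aliquots for 3 min over 48°C-58°C before pooling and addition of NP-40 to 0.5% at 4°C. Centrifugation at 21,000xg for 90 min left soluble protein in the supernatant, which TMTpro 16plex LC-MS/MS quantified with equalised channel sums. Results are log-two fold changes in thermal stability compared with solvent controls, from duplicates.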

[2] = compound: CS(=O)(=O)N1CCN(Cc2cc3nc(-c4cccc5[nH]ncc45)nc(N4CCOCC4)c3s2)CC1 [pictilisib]
How it was run: as §1

[3] = compound: C[C@@H](Oc1cc(-c2cnn(C3CCNCC3)c2)cnc1N)c1c(Cl)ccc(F)c1Cl [crizotinib]
How it was run: as §1

[4] = compound: C[C@H](C1=CC=C(C=C1)C(=O)NC2=C3C=CNC3=NC=C2)N
How it was run: as §1

[5] = compound: C[C@H](Nc1ncnc2nc[nH]c12)c1cc2cccc(Cl)c2c(=O)n1-c1ccccc1 [duvelisib]
How it was run: as §1

[6] = compound: Cc1cc(Nc2cc(CN3CCOCC3)c3nc(C)c(Cc4ccc(Cl)cc4F)n3n2)n[nH]1 [gandotinib]
How it was run: as §1

[7] = compound: Cc1cc(Nc2cc(N3CCN(C)CC3)nc(Sc3ccc(NC(=O)C4CC4)cc3)n2)n[nH]1 [tozasertib]
How it was run: as §1

[8] = compound: Cc1ccc(-n2nc(C(C)(C)C)cc2NC(=O)Nc2ccc(OCCN3CCOCC3)c3ccccc23)cc1 [doramapimod]
How it was run: as §1

[9] = compound: Cc1ccc(NC(=O)c2ccc(CN3CC[C@H](N(C)C)C3)c(C(F)(F)F)c2)cc1Nc1nccc(-c2cncnc2)n1 [bafetinib]
How it was run: as §1

[10] = compound: Cc1cccc(CC(=O)N2CCc3c2ccc(-c2cn(C)c4ncnc(N)c24)c3F)n1
How it was run: as §1

Measured: log2 fold change

FIBP (UniProt O43427)
inactive: [1] -0.016 | [2] -0.074 | [3] -0.08 | [4] 0.003 | [5] 0.073 | [6] -0.031 | [7] 0.05 | [8] -0.038 | [9] -0.025 | [10] 0.094

FDPS, A0A087WVN4
inactive: [1] -0.207

FBL (UniProt P22087)
inactive: [1] -0.047 | [2] -0.017 | [3] -0.011 | [4] 0.06 | [5] 0.05 | [6] -0.048 | [7] 0.015 | [8] 0.003 | [9] -0.083 | [10] 0.041

FKBP4 (UniProt Q02790)
inactive: [1] -0.001 | [2] 0.007 | [3] 0.04 | [4] -0.001 | [5] 0.012 | [6] -0.01 | [7] -0.009 | [8] -0.017 | [9] -0.001 | [10] -0.03

FLAD1 (UniProt Q8NFF5)
inactive: [1] 0.007 | [2] 0.002 | [3] -0.024 | [4] 0.021 | [5] 0.05 | [6] 0.044 | [7] -0.052 | [8] -0.02 | [9] -0.052 | [10] -0.05

FBXO30 (UniProt Q8TB52)
inactive: [1] -0.015 | [2] -0.03 | [3] -0.013 | [4] 0.187 | [5] 0.024 | [6] -0.072 | [7] -0.021 | [8] 0.045 | [9] 0.032 | [10] -0.117

FNBP1L (UniProt Q5T0N5)
inactive: [1] 0.005 | [2] 0 | [3] -0.039 | [4] -0.023 | [5] -0.115 | [6] 0.002 | [7] -0.003 | [8] 0.113 | [9] -0.089 | [10] -0.026

FBXO4 (UniProt Q9UKT5)
inactive: [1] -0.003 | [2] -0.031 | [3] -0.089 | [4] -0.035 | [5] -0.019 | [6] 0.019 | [7] 0.034 | [8] 0.024 | [9] -0.055 | [10] 0.026

FIGNL1 (UniProt Q6PIW4)
inactive: [1] 0 | [2] -0.03 | [3] -0.078 | [4] -0.035 | [5] 0.002 | [6] -0.071 | [7] 0.003 | [8] -0.018 | [9] -0.024 | [10] 0.007

FIP1L1 (UniProt Q6UN15)
inactive: [1] 0.011 | [2] -0.01 | [3] 0.06 | [4] 0.036 | [5] -0.043 | [6] -0.034 | [7] 0.001 | [8] 0.024 | [9] 0.016 | [10] 0.011

FANCD2 isoform 1 (UniProt Q9BXW9)
active: [10] 0.279
inactive: [1] -0.092 | [2] -0.037 | [3] -0.221 | [4] -0.086 | [5] -0.032 | [6] 0.132 | [7] -0.069 | [8] -0.023 | [9] -0.079

FLOT2 (UniProt Q14254)
inactive: [1] -0.022 | [2] 0.012 | [3] 0.013 | [4] -0.018 | [5] 0.007 | [6] -0.009 | [7] 0.004 | [8] -0.003 | [9] 0.01 | [10] 0.01

FGF2 (UniProt P09038)
inactive: [1] -0.011 | [2] 0.018 | [3] -0.015 | [4] -0.067 | [5] 0.019 | [6] 0.035 | [7] 0.1 | [8] -0.031 | [9] 0.029 | [10] -0.003

FIS1 (UniProt Q9Y3D6)
inactive: [1] 0.057 | [2] -0.026 | [3] 0.034 | [4] -0.017 | [5] 0.027 | [6] 0.164 | [7] -0.024 | [8] 0.107 | [9] -0.015 | [10] -0.017

FERMT3 (UniProt Q86UX7)
inactive: [1] -0.01 | [2] 0.002 | [3] -0.002 | [4] -0.046 | [5] -0.004 | [6] 0.046 | [7] 0.007 | [8] -0.013 | [9] -0.045 | [10] 0.055

FAU (UniProt E9PR30)
inactive: [1] -0.018 | [2] 0.02 | [3] -0.055 | [5] 0.047 | [6] -0.105 | [7] -0.027 | [8] 0.071 | [9] -0.019 | [10] -0.121
active: [4] 0.293

FAM91A1 (UniProt Q658Y4)
inactive: [1] -0.021 | [2] 0.001 | [3] -0.033 | [4] 0.036 | [5] 0.014 | [6] -0.098 | [7] 0.003 | [8] 0.014 | [9] -0.054 | [10] -0.057

FERMT2 isoform 3 (UniProt Q96AC1)
inactive: [1] 0.023 | [2] -0.08 | [3] -0.011 | [4] -0.007 | [5] -0.054 | [6] 0.073 | [7] 0.033 | [8] -0.003 | [9] 0.029 | [10] 0.001

FIG4 (UniProt Q92562)
inactive: [1] -0.065 | [2] 0.12 | [3] -0.016 | [4] 0.039 | [5] -0.023 | [6] -0.099 | [7] -0.112 | [8] -0.067 | [9] -0.09 | [10] 0.058

FLNC (UniProt Q14315)
inactive: [1] -0.009 | [2] -0.011 | [3] 0.013 | [4] -0.089 | [5] -0.011 | [6] 0.051 | [7] -0.033 | [8] -0.017 | [9] 0.026 | [10] 0.022

FKBP8 isoform 2 (UniProt Q14318)
inactive: [1] -0.041 | [2] -0.036 | [3] -0.12 | [4] -0.035 | [5] 0.044 | [6] -0.021 | [7] -0.024 | [8] 0.064 | [9] -0.07 | [10] 0.013

FN1 (UniProt P02751)
inactive: [1] 0.001 | [2] -0.059 | [3] -0.029 | [4] -0.01 | [5] 0.036 | [6] -0.006 | [7] -0.098 | [8] 0.007 | [9] -0.036 | [10] 0.098

FASTKD2 (UniProt Q9NYY8)
inactive: [1] -0.028 | [2] -0.001 | [3] -0.032 | [4] -0.067 | [5] 0.026 | [6] -0.049 | [7] -0.013 | [8] 0.028 | [9] -0.028 | [10] 0.05

FHL2 (UniProt Q14192)
inactive: [1] 0.023 | [2] 0.005 | [3] 0.004 | [4] -0.038 | [5] 0.024 | [6] 0.033 | [7] -0.021 | [8] 0.105 | [9] -0.038 | [10] 0.029

FLNB isoform 8 (UniProt O75369)
inactive: [1] -0.005 | [2] -0.016 | [3] -0.005 | [4] -0.055 | [5] -0.008 | [6] 0.025 | [7] -0.006 | [8] -0.002 | [9] 0.01 | [10] 0.019

FAM98B (UniProt Q52LJ0)
inactive: [1] 0.016 | [2] 0.011 | [3] -0.058 | [4] 0.048 | [5] -0.002 | [6] -0.025 | [7] 0.016 | [8] 0.075 | [9] 0.07 | [10] 0.02

FAM98A (UniProt Q8NCA5)
inactive: [1] 0.001 | [2] -0.024 | [3] 0.007 | [4] 0.074 | [5] -0.024 | [6] -0.059 | [7] 0.023 | [8] -0.015 | [9] 0.012 | [10] 0

FKBP3 (UniProt Q00688)
inactive: [1] -0.016 | [2] -0.005 | [3] 0.022 | [4] -0.011 | [5] -0.001 | [6] 0.054 | [7] 0.005 | [8] -0.068 | [9] 0.004 | [10] -0.02

Quoted at random: two records from the list.
FAU (UniProt E9PR30)
inactive: [1] -0.018 | [2] 0.02 | [3] -0.055 | [5] 0.047 | [6] -0.105 | [7] -0.027 | [8] 0.071 | [9] -0.019 | [10] -0.121
active: [4] 0.293

FN1 (UniProt P02751)
inactive: [1] 0.001 | [2] -0.059 | [3] -0.029 | [4] -0.01 | [5] 0.036 | [6] -0.006 | [7] -0.098 | [8] 0.007 | [9] -0.036 | [10] 0.098

Later entries:

FANCB (UniProt Q8NB91)
inactive: [1] -0.04 | [2] -0.015 | [3] -0.148 | [4] -0.099 | [5] -0.046 | [6] 0.035 | [7] -0.009 | [8] 0.111 | [9] -0.008 | [10] 0.085

FKBPL (UniProt Q9UIM3)
inactive: [1] -0.016 | [2] 0.013 | [3] -0.031 | [4] 0.068 | [5] 0.008 | [6] -0.009 | [7] 0.008 | [8] 0.067 | [9] -0.012 | [10] -0.002
